Reference: the supplement of paper PMC10849652
The list shows a part of the results.

The chains behind the UniProt entries cited, without tags or fusion partners. Where a name states a change or a piece, a line headed by the entry shows the natural chain unless it says otherwise.
UniProt O75475: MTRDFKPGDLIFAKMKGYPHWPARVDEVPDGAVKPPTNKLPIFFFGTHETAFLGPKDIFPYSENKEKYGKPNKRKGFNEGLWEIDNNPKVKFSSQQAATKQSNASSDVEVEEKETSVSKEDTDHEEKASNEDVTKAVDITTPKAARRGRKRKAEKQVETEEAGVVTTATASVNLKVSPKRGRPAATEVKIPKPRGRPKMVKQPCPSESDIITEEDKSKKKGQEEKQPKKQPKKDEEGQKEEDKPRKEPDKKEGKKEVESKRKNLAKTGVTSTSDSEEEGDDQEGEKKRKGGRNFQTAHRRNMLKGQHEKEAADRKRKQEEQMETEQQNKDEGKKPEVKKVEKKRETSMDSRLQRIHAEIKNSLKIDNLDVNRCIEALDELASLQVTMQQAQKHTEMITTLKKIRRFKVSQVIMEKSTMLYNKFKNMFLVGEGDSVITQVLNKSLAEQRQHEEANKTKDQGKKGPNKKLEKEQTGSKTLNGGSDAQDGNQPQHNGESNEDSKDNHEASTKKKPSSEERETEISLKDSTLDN
UniProt Q9Y6I8: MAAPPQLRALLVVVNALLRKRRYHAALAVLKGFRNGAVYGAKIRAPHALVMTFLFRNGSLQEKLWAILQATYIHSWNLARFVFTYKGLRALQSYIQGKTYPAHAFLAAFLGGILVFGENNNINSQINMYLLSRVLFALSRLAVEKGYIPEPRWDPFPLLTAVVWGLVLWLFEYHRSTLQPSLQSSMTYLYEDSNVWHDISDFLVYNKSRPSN
UniProt Q92530: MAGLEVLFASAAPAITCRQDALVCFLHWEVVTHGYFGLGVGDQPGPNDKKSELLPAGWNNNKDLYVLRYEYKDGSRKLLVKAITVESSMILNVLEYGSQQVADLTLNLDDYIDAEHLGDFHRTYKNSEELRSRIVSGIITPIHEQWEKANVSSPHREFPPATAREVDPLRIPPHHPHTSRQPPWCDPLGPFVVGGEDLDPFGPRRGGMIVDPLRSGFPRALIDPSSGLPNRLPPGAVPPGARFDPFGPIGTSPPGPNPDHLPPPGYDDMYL
UniProt Q8TAA3: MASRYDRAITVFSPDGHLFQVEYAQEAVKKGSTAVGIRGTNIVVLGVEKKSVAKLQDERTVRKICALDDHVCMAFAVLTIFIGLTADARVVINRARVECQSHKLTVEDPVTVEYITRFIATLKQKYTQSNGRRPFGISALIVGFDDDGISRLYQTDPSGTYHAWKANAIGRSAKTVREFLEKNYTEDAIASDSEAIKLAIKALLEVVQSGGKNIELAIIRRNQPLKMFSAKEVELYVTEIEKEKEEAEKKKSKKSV
UniProt Q15269: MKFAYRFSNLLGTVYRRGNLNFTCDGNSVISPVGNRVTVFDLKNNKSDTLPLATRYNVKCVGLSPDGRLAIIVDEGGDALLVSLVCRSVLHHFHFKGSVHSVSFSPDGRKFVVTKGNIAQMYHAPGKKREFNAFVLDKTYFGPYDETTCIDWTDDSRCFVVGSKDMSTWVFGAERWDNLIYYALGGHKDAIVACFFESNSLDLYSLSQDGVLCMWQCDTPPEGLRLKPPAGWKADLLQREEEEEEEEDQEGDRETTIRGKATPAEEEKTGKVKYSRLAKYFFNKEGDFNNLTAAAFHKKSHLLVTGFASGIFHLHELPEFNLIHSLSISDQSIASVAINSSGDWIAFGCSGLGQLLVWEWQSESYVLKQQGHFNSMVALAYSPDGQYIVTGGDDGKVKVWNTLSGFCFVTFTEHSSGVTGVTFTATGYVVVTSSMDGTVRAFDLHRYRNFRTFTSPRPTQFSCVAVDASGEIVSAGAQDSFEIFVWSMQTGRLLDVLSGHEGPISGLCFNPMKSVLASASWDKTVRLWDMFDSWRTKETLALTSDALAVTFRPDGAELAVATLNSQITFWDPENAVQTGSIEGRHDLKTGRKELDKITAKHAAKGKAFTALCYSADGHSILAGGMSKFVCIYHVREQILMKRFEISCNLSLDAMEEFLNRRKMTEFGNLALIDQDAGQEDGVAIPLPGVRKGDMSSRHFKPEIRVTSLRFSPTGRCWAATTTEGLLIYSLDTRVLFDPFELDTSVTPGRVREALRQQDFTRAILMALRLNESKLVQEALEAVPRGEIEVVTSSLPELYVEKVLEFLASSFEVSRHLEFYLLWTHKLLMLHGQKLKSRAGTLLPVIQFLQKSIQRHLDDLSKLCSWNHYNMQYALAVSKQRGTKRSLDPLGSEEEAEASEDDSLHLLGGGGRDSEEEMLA
UniProt Q9UHX1: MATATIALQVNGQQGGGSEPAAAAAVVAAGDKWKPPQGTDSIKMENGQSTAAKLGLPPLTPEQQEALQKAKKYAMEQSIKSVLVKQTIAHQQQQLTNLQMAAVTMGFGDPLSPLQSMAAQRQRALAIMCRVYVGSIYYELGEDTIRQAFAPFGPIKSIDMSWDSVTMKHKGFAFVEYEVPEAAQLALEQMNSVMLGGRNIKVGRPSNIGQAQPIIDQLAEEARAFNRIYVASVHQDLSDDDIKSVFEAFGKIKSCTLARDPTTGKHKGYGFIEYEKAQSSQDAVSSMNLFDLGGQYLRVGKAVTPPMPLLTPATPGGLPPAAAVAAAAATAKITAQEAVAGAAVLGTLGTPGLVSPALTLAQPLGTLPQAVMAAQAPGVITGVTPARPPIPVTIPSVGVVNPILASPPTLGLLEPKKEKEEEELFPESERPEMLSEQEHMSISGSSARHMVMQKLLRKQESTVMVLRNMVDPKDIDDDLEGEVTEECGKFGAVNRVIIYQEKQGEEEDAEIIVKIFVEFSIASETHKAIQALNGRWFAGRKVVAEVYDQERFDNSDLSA
UniProt O00487, whole entry, looked up: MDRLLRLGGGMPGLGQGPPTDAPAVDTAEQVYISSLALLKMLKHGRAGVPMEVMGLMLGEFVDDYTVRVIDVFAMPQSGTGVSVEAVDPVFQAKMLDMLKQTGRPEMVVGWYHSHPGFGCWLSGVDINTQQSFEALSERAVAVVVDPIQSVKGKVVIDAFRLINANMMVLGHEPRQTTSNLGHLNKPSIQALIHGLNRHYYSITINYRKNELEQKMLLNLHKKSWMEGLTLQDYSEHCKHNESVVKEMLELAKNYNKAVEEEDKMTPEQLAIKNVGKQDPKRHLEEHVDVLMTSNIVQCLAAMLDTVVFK
UniProt Q86TP1: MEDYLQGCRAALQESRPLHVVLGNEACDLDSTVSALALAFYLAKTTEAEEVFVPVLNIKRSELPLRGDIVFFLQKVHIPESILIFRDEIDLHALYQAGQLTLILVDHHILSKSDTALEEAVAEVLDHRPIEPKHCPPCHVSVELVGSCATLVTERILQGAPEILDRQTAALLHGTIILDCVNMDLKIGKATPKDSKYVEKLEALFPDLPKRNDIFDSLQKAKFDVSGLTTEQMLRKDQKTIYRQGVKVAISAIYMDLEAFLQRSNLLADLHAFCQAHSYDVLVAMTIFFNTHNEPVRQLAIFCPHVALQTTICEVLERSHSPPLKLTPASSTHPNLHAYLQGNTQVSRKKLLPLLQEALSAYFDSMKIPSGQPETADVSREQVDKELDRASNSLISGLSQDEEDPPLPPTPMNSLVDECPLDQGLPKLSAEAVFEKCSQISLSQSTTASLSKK
UniProt Q9BZE2: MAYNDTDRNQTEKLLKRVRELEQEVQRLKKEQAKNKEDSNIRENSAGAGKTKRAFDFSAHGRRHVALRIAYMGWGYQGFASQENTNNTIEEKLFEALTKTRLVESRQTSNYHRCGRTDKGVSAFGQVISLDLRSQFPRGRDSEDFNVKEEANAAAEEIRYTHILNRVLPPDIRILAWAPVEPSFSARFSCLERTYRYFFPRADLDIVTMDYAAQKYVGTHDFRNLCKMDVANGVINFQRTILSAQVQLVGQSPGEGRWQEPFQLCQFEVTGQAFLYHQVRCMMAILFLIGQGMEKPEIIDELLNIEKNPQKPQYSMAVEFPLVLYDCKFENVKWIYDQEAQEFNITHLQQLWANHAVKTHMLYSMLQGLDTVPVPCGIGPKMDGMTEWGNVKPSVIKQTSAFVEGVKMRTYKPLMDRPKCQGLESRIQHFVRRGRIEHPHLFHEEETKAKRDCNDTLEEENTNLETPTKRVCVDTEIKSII
UniProt Q7Z7A4: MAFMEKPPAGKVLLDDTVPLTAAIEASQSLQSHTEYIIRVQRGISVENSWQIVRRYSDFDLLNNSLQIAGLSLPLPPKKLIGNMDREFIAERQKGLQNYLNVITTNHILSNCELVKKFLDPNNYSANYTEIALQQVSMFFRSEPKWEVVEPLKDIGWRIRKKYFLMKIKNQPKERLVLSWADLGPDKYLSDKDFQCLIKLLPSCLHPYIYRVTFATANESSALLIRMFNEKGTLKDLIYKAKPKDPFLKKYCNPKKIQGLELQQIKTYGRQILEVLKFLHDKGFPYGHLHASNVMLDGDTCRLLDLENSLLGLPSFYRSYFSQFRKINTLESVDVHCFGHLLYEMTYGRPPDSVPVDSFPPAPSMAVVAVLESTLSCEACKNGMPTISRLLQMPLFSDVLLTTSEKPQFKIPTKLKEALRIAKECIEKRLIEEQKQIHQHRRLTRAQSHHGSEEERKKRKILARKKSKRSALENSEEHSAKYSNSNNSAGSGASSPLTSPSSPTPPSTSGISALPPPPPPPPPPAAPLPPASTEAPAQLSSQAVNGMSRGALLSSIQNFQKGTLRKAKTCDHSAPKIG
UniProt O14818: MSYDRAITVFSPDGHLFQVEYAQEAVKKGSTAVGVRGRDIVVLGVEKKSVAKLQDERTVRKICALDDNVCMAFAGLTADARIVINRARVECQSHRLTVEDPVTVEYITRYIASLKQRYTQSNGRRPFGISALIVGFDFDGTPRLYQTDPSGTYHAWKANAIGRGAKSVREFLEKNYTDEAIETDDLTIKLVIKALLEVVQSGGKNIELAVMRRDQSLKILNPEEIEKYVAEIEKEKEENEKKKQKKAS
UniProt Q8WUK0: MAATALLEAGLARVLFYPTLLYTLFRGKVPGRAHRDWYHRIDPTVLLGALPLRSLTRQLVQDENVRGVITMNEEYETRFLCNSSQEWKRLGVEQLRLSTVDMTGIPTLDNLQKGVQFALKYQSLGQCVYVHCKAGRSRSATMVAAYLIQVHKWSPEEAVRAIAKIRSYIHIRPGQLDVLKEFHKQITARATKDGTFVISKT
UniProt P17980, whole entry, looked up: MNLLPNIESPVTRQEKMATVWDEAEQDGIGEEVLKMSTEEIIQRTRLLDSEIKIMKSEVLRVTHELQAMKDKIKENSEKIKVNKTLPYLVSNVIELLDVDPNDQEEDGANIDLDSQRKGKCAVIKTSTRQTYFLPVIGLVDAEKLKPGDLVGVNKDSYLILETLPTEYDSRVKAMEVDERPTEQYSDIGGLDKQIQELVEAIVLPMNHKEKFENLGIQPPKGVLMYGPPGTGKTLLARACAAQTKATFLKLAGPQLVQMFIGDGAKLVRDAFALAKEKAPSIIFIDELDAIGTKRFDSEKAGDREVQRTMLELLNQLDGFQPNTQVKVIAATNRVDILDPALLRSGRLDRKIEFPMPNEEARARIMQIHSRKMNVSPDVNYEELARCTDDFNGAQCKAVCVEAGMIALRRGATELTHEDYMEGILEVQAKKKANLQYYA
UniProt P60900, whole entry, looked up: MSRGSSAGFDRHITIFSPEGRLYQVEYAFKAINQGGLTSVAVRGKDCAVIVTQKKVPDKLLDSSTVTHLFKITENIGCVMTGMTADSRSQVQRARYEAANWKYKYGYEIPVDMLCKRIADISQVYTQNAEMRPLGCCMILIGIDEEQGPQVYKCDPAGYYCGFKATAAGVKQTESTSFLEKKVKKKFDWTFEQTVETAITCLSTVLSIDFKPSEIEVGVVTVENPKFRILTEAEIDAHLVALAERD
UniProt O00232: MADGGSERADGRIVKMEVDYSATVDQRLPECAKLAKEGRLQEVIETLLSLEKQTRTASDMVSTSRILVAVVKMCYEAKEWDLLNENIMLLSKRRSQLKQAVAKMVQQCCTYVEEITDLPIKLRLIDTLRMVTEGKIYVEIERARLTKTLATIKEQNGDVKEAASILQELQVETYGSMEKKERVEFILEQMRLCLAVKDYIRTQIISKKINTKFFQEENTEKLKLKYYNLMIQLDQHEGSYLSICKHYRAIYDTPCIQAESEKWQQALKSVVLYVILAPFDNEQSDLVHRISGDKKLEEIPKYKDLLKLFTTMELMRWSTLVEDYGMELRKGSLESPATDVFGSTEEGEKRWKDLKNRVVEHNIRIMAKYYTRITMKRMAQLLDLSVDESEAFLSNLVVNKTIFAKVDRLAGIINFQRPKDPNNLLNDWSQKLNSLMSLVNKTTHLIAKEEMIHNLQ
UniProt Q15185: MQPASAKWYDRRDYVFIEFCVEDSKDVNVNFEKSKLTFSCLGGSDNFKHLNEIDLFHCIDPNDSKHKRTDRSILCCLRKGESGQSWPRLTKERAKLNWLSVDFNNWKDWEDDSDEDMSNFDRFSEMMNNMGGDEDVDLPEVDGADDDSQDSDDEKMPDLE
UniProt P28074: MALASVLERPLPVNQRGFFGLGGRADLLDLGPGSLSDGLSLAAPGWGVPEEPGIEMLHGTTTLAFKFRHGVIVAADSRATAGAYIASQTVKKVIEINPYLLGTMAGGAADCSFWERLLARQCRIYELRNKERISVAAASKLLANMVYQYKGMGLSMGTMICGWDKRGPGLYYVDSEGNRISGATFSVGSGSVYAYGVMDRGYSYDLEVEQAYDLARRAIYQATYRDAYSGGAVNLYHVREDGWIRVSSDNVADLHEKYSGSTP

Experiments:
Assay in all cases: log2 fold change, soluble protein after heating vs DMSO (PISA); higher = thermal stabilisation; K562 cells, 10 uM, 30 min; active = over 0.2 and 3.5 SD of the protein, either way, in both replicates (recomputed)
bafetinib = compound: Cc1ccc(NC(=O)c2ccc(CN3CC[C@H](N(C)C)C3)c(C(F)(F)F)c2)cc1Nc1nccc(-c2cncnc2)n1 [bafetinib]
Outline: (§1)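 Thermal stability values are relative to control samples and come from duplicates. They are expressed as log2 fold changes. For measurement, K562 cells (2×10^6 cells/mL) received 10 μM compound for 30 min, and aliquots were heated for 3 min over 48°C-58°C, pooled, and extracted at 4°C in PBS with 0.5% NP-40. Soluble protein, the supernatant after 21,000xg for 90 min, was quantified by TMTpro 16plex LC-MS/MS with equalised channel sums.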

[1] = compound: Cc1cccc(CC(=O)N2CCc3c2ccc(-c2cn(C)c4ncnc(N)c24)c3F)n1
Outline: as §1

nilotinib = compound: Cc1cn(-c2cc(NC(=O)c3ccc(C)c(Nc4nccc(-c5cccnc5)n4)c3)cc(C(F)(F)F)c2)cn1 [nilotinib]
Outline: as §1

[2] = compound: Cc1nc(Nc2n[nH]c3c2CN(C(=O)N[C@H](CN(C)C)c2ccccc2)C3(C)C)c2sccc2n1
Outline: as §1

dasatinib = compound: Cc1nc(Nc2ncc(C(=O)Nc3c(C)cccc3Cl)s2)cc(N2CCN(CCO)CC2)n1 [dasatinib]
Outline: as §1

[3] = compound: Cc1ncc(-c2ccnc(Nc3ccc(S(C)(=O)=O)cc3)n2)n1C(C)C
Outline: as §1

[4] = compound: Cn1cc(-c2ccc3c(c2)CCN3C(=O)Cc2cccc(C(F)(F)F)c2)c2c(N)ncnc21
Outline: as §1

[5] = compound: Cn1cc(-c2ccc3nnc(C(F)(F)c4ccc5ncccc5c4)n3n2)cn1
Outline: as §1

tipifarnib = compound: Cn1cncc1[C@@](N)(c1ccc(Cl)cc1)c1ccc2c(c1)c(-c1cccc(Cl)c1)cc(=O)n2C [tipifarnib]
Outline: as §1

mubritinib = compound: FC(F)(F)c1ccc(/C=C/c2nc(COc3ccc(CCCCn4ccnn4)cc3)co2)cc1 [mubritinib]
Outline: as §1

Measured: log2 fold change

PSIP1 (UniProt O75475)
inactive: bafetinib 0.054 | [1] -0.011 | nilotinib -0.028 | [2] 0.033 | dasatinib 0.079 | [3] -0.014 | [4] -0.102 | [5] -0.085 | tipifarnib 0.152 | mubritinib -0.058

PXMP4 (UniProt Q9Y6I8)
inactive: bafetinib -0.093 | [1] -0.01 | nilotinib 0 | [2] -0.008 | dasatinib -0.001 | [3] -0.014 | [4] 0.054 | [5] 0.054 | tipifarnib 0.143 | mubritinib 0.002

PSME2 (UniProt Q9UL46)
inactive: bafetinib -0.071 | [1] -0.003 | nilotinib -0.033 | [2] -0.038 | dasatinib -0.027 | [3] -0.032 | [4] -0.006 | [5] -0.012 | tipifarnib -0.021 | mubritinib 0.035

PSMF1 (UniProt Q92530)
inactive: bafetinib -0.059 | [1] 0.01 | nilotinib -0.009 | [2] -0.022 | dasatinib 0.012 | [3] -0.062 | [4] 0.064 | [5] -0.002 | tipifarnib 0.027 | mubritinib 0.068

PSMA8 (UniProt Q8TAA3)
inactive: bafetinib 0.082 | [1] -0.049 | nilotinib -0.01 | [2] 0.073 | dasatinib 0.036 | [3] -0.008 | [4] -0.053 | [5] -0.048 | tipifarnib 0.001 | mubritinib -0.027

PWP1 (UniProt Q13610)
inactive: bafetinib 0.218 | [1] 0.033 | nilotinib 0.026 | [2] 0.285 | dasatinib 0.228 | [3] 0.155 | [4] -0.427 | [5] -0.154 | tipifarnib 0.193 | mubritinib -0.111

PWP2 (UniProt Q15269)
inactive: bafetinib 0.12 | [1] 0.058 | nilotinib -0.03 | [2] -0.074 | dasatinib -0.062 | [3] 0.077 | [4] -0.137 | [5] -0.087 | tipifarnib 0.05 | mubritinib -0.059

PTPN11 isoform 1 (UniProt Q06124)
inactive: bafetinib -0.021 | [1] 0.071 | nilotinib 0.019 | [2] -0.024 | dasatinib -0.064 | [3] -0.017 | [4] 0.037 | [5] -0.018 | tipifarnib 0.012 | mubritinib 0.094

PSMA5 (UniProt P28066)
inactive: bafetinib 0.042 | [1] -0.015 | nilotinib 0.002 | [2] 0.034 | dasatinib 0.061 | [3] -0.007 | [4] -0.028 | [5] -0.003 | tipifarnib 0.02 | mubritinib -0.002

PUDP isoform 4 (UniProt Q08623)
inactive: bafetinib -0.069 | [1] -0.03 | nilotinib 0.028 | [2] 0.033 | dasatinib -0.05 | [3] 0.024 | [4] 0.058 | [5] 0.003 | tipifarnib -0.069 | mubritinib 0.015

PUF60 (UniProt Q9UHX1)
active: [2] -0.703
inactive: bafetinib 0.077 | [1] -0.04 | nilotinib -0.022 | dasatinib -0.085 | [3] -0.001 | [4] 0.008 | [5] -0.046 | tipifarnib -0.034 | mubritinib 0.024

PSMD14 (UniProt O00487)
inactive: bafetinib 0.215 | [1] 0.013 | nilotinib 0.022 | [2] 0.052 | dasatinib 0.019 | [3] -0.019 | [4] -0.066 | [5] -0.03 | tipifarnib 0.05 | mubritinib -0.034

PRUNE1 (UniProt Q86TP1)
inactive: bafetinib -0.037 | [1] 0.045 | nilotinib -0.051 | [2] -0.054 | dasatinib -0.178 | [3] 0.082 | [4] -0.045 | [5] -0.045 | tipifarnib -0.122 | mubritinib -0.056

PUS7L (UniProt Q9H0K6)
inactive: bafetinib -0.04 | [1] -0.004 | nilotinib -0.003 | [2] -0.057 | dasatinib 0.013 | [3] -0.001 | [4] -0.001 | [5] -0.018 | tipifarnib 0.032 | mubritinib 0.007

PUS3 (UniProt Q9BZE2)
inactive: bafetinib -0.003 | [1] 0 | nilotinib -0.062 | [2] 0.065 | dasatinib -0.075 | [3] -0.062 | [4] 0.078 | [5] -0.027 | tipifarnib -0.046 | mubritinib 0.037

PXK (UniProt Q7Z7A4)
inactive: bafetinib -0.01 | [1] 0.086 | nilotinib -0.026 | [2] 0.025 | dasatinib 0.226 | [3] 0.012 | [4] 0.029 | [5] -0.106 | tipifarnib -0.001 | mubritinib 0.098

PSMA7 (UniProt O14818)
inactive: bafetinib 0.027 | [1] -0.042 | nilotinib 0.02 | [2] 0.03 | dasatinib 0.078 | [3] -0.016 | [4] -0.035 | [5] 0.007 | tipifarnib 0.072 | mubritinib 0.004

PTPMT1 (UniProt Q8WUK0)
inactive: bafetinib -0.16 | [1] -0.003 | nilotinib 0.069 | [2] -0.013 | dasatinib -0.138 | [3] 0.029 | [4] -0.056 | [5] -0.132 | tipifarnib 0.026 | mubritinib -0.006

PSMD2 (UniProt Q13200)
inactive: bafetinib 0.079 | [1] 0 | nilotinib -0.031 | [2] 0.061 | dasatinib 0.031 | [3] -0.005 | [4] -0.12 | [5] -0.006 | tipifarnib 0.07 | mubritinib -0.038

PTAR1 (UniProt Q7Z6K3)
inactive: bafetinib -0.09 | [1] 0.037 | nilotinib 0.034 | [2] -0.012 | dasatinib 0.029 | [3] -0.048 | [4] 0.019 | [5] 0.09 | tipifarnib 0.092 | mubritinib 0

PSME3 isoform 2 (UniProt P61289)
inactive: bafetinib -0.049 | [1] -0.029 | nilotinib 0.011 | [2] -0.001 | dasatinib 0.037 | [3] -0.016 | [4] 0.007 | [5] -0.004 | tipifarnib 0.026 | mubritinib 0.031

Fetched one by one from the list above, 2 records:
PSME3 isoform 2 (UniProt P61289)
inactive: bafetinib -0.049 | [1] -0.029 | nilotinib 0.011 | [2] -0.001 | dasatinib 0.037 | [3] -0.016 | [4] 0.007 | [5] -0.004 | tipifarnib 0.026 | mubritinib 0.031

PSME2 (UniProt Q9UL46)
inactive: bafetinib -0.071 | [1] -0.003 | nilotinib -0.033 | [2] -0.038 | dasatinib -0.027 | [3] -0.032 | [4] -0.006 | [5] -0.012 | tipifarnib -0.021 | mubritinib 0.035

Next part.

PSMG4 isoform 2 (UniProt Q5JS54)
inactive: bafetinib -0.047 | [1] 0.161 | nilotinib 0.248 | [2] -0.189 | dasatinib 0.23 | [3] 0.137 | [4] -0.01 | [5] -0.012 | tipifarnib -0.24 | mubritinib 0.04

PSMC3 (UniProt P17980)
inactive: bafetinib 0.072 | [1] -0.033 | nilotinib -0.004 | [2] 0.059 | dasatinib 0.016 | [3] -0.017 | [4] -0.1 | [5] -0.005 | tipifarnib 0.124 | mubritinib -0.016

PSMA6 (UniProt P60900)
inactive: bafetinib 0.054 | [1] -0.013 | nilotinib 0.006 | [2] 0.09 | dasatinib 0.065 | [3] -0.009 | [4] -0.085 | [5] -0.03 | tipifarnib 0.021 | mubritinib -0.057

PUM2 (UniProt Q8TB72)
inactive: bafetinib -0.123 | [1] -0.054 | nilotinib 0.064 | [2] 0.029 | dasatinib 0.043 | [3] -0.082 | [4] 0.006 | [5] 0.035 | tipifarnib 0.018 | mubritinib 0.037

PSMD12 (UniProt O00232)
inactive: bafetinib 0.119 | [1] 0.033 | nilotinib 0.026 | [2] 0.044 | dasatinib 0 | [3] -0.001 | [4] -0.088 | [5] -0.022 | tipifarnib 0.019 | mubritinib -0.034

PTGES3 (UniProt Q15185)
inactive: bafetinib -0.05 | [1] 0.028 | nilotinib -0.044 | [2] -0.089 | dasatinib -0.142 | [3] -0.042 | [4] 0.034 | [5] 0.039 | tipifarnib -0.119 | mubritinib -0.091

PSMB5 (UniProt P28074)
inactive: bafetinib 0.142 | [1] 0.015 | nilotinib -0.006 | [2] 0.043 | dasatinib 0.029 | [3] 0.005 | [4] -0.04 | [5] -0.023 | tipifarnib -0.012 | mubritinib -0.014

PSMD5 (UniProt Q16401)
inactive: bafetinib -0.09 | [1] 0.006 | nilotinib -0.015 | [2] -0.026 | dasatinib -0.026 | [3] 0.006 | [4] 0.018 | [5] 0.002 | tipifarnib -0.05 | mubritinib 0.023
